Experimental data published in PMC11525750.
These are yes or no findings as the source states them, for the method shown. In cells and extracts the contact can be indirect. Some results given as binding are weak or reduced against the parent protein; the word gives no strength.

Amino acid sequences for entries named in this document (tags omitted).
UniProt Q8NCD3: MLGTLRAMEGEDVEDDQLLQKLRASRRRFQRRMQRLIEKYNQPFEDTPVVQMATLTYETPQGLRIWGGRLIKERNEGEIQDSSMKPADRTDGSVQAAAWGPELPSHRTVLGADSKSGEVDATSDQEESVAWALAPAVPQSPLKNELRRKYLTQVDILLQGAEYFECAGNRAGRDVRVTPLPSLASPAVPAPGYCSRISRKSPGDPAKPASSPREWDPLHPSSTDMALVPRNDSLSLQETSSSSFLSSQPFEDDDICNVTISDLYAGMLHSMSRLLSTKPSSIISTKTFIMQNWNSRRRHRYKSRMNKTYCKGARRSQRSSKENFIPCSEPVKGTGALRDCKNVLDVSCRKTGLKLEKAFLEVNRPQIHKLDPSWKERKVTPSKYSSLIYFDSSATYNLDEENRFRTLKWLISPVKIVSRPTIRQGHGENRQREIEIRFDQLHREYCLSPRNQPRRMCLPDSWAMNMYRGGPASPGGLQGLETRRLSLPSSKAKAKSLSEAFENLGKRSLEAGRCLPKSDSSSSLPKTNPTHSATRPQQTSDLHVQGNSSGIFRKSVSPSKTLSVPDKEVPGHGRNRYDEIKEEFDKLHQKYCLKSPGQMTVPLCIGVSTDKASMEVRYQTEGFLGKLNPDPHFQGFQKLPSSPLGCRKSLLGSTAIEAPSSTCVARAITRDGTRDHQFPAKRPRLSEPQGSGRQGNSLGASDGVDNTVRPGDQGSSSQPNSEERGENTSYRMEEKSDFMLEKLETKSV

Biological target: T1, SBP-PRDX1 (UniProt Q06830)
T1 sequence: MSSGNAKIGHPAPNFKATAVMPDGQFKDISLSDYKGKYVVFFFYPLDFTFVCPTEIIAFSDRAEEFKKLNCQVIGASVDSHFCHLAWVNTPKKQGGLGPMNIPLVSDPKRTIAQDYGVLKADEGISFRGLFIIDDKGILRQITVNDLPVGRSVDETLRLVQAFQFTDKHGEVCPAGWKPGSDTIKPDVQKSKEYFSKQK
Test: pull-down; SBP-tagged protein transfected into C4-2 or PC3 cells, H2O2 for 2 min, free thiols blocked with 20 mM MMTS, lysate on SA-Sepharose beads, washes with 1 % Triton X-100 and 1 M urea, elution with biotin, non-reducing immunoblotting (disulfide-linked conjugates)

- binding: binds
Substance: Holliday junction recognition protein (HJURP) (from UniProt Q8NCD3 1-748)
